The assay deals with T1, Semaphorin 3d (human (endogenous in PLC/PRF/5; cDNA of the lentiviral construct in HCCLM3 not stated)) (UniProt O95025).
T1 sequence: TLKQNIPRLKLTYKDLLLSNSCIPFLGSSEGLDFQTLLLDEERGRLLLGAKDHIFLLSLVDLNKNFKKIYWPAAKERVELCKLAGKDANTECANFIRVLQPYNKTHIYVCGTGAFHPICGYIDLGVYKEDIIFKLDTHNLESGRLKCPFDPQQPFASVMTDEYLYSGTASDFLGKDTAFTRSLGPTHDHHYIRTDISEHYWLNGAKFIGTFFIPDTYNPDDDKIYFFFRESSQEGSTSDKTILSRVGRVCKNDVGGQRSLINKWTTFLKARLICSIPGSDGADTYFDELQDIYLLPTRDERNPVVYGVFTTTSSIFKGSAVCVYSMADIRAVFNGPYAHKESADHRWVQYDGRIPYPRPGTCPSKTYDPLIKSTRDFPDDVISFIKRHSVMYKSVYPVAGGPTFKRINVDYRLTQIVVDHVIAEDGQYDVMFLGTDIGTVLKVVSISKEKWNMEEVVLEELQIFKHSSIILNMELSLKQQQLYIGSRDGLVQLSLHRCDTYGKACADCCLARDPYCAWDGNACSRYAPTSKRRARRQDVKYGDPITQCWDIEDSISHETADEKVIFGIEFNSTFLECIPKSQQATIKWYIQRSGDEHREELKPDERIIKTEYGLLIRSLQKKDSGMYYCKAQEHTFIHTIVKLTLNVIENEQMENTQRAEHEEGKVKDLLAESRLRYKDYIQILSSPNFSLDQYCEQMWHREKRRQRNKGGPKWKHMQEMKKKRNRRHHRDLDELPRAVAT
In words: co-IP; co-IP of Sema3d and FLNA in HCC cells, detected by blot (Figure 5B); details in the Supplementary Materials and Methods.

Protein sequences, listed by entry. Tags and fused reporters are not part of them.
UniProt P21333: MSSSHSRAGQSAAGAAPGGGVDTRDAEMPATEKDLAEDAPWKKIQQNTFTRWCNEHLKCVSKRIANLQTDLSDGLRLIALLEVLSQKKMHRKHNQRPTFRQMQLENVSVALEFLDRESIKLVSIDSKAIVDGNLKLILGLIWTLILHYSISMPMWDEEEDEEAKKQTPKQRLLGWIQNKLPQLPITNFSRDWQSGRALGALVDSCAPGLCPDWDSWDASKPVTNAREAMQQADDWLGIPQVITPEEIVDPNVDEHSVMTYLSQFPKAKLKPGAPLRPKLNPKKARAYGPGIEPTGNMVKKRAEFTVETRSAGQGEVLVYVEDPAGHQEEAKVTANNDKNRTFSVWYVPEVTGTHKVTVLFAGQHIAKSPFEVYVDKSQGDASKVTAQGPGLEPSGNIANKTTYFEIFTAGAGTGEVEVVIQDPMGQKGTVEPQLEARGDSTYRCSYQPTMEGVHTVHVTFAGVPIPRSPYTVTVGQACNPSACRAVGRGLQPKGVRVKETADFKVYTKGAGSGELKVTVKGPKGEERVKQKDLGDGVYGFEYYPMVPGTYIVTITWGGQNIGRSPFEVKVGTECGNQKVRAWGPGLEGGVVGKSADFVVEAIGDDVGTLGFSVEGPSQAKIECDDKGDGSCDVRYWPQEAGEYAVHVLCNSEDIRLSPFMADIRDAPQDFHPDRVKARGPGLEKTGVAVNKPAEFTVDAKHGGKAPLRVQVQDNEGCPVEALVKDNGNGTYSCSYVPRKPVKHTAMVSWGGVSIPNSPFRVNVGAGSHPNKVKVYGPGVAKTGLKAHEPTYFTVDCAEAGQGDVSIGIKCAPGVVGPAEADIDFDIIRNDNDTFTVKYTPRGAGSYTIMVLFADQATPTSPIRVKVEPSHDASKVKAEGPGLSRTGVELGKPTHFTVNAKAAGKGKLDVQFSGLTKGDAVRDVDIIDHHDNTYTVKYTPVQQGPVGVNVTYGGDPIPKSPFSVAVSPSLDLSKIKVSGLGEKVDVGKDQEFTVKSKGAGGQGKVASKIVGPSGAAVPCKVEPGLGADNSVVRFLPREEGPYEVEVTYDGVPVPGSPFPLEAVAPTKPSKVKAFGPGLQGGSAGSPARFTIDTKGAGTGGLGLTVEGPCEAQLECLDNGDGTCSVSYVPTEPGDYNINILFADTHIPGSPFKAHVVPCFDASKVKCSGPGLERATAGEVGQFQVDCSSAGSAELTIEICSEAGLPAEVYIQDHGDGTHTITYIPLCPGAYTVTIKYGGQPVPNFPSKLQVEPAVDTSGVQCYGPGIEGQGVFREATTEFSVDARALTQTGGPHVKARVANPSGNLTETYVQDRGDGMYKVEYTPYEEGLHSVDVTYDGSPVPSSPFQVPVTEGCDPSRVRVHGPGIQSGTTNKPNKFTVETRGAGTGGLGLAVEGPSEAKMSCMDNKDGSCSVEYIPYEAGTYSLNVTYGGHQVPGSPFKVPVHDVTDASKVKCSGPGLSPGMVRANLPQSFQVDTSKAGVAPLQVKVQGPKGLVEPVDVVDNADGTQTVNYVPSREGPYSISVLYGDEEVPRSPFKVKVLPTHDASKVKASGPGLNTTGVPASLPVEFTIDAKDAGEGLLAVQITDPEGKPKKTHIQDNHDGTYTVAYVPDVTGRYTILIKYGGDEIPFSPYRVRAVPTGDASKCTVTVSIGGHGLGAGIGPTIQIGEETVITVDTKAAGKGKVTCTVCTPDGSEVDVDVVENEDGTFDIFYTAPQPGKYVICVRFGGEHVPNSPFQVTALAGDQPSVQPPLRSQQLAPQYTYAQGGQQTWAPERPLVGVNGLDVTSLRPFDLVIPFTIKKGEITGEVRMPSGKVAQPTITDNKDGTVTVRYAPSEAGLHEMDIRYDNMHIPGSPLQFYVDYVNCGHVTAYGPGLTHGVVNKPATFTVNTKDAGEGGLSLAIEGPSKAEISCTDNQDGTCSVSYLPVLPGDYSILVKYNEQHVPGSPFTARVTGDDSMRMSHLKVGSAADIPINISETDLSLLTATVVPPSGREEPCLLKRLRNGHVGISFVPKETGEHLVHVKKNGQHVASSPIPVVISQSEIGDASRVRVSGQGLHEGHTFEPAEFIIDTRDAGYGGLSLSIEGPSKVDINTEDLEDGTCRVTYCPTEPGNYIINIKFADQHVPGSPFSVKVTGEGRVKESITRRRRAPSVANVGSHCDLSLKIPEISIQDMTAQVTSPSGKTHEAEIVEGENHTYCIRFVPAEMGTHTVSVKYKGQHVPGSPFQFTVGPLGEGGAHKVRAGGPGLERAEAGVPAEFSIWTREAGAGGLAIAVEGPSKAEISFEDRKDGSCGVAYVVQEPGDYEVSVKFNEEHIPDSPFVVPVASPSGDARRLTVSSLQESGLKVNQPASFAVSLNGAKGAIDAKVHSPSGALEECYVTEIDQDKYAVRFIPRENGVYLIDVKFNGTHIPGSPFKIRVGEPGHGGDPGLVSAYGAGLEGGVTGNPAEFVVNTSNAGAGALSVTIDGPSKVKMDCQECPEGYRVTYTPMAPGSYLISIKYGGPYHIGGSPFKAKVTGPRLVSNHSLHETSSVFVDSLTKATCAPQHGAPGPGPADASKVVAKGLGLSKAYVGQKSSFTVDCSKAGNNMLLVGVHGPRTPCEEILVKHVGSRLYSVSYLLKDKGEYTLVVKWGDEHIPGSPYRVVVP

No constants are given. Whether binding was seen depends on the method and setting. In cells and extracts the contact can be indirect. Some entries that bind do so weakly or less than the wild type.

Here are results for one substance from publication PMC9358705.

In the case of filamin-A (from UniProt P21333 1-2647), the binding result is recorded as “binds”.
